Values of other authors, collected in patent publication US20080064053A1, “Genotoxicity Testing” (priority 2003, published 2008).

Settings: in vivo; cited from earlier work

**Q.** Which “cancer data / carcinogenicity” value does the source give for Cc1cc(NS(=O)(=O)c2ccc(N)cc2)no1 [sulfamethoxazole] here?
**A.** positive
